# Data taken from paper PMC12745170.
# Chains of the proteins cited; added tags and fusions are not shown.
# UniProt Q6NUQ1: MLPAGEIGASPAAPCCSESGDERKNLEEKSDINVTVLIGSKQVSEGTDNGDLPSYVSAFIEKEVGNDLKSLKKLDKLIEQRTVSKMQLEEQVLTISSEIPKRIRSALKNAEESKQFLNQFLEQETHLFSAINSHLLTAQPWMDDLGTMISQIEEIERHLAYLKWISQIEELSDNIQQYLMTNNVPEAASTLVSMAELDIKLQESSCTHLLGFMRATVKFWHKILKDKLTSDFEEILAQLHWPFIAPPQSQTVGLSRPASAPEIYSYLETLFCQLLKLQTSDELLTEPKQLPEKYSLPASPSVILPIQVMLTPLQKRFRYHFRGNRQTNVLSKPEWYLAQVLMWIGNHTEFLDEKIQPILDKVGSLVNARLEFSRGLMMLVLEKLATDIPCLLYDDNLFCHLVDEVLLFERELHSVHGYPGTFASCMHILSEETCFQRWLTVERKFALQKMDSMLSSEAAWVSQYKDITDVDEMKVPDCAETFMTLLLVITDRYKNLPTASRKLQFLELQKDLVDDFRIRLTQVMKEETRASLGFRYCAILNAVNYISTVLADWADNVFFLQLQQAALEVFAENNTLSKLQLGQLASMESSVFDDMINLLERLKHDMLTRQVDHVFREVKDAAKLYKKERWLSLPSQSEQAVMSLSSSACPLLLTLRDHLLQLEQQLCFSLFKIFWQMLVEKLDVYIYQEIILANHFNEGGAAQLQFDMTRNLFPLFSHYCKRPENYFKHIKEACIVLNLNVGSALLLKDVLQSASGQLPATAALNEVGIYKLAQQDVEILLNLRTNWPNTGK
# Results are given in words; binding and its absence hold for the method and conditions named. Binding seen in cells or lysates may run through a third protein. Some entries that bind do so weakly or less than the wild type. For some of these results: Tags and fused reporters may be left off the sequences shown.
# B1: Ring Finger Protein 39 (RNF39), endogenous in COAD cells (protein, UniProt Q9H2S5 1-420)
# chain: MWWRDLTRLRLWLKREAIPGEGRKAAKVNAGVGEKGIYTASSRGGPPSARSKAVTVVAEGAASRSWLSMDAPELGPGLVERLEQLATCPLCGGSFEDPVLLACEHSFCRACLARRWGTPPATGTEASPTACPCCGLPCPRRSLRSNVRLAVEVRISRELREKLAEPGARAGRRRGGRIPTMGCLDLPGEDMRKTWRRFEVPTSKSSNSEDDLPEDYPVVKKMLHRLTADLTLDPGTAHRRLLISADRRSVQLAPPGTPAPPDGPKRFDQLPAVLGAQGFGAGRHCWEVETADAASCRDSSGEDADDEESHYAVGAAGESVQRKGCVRLCPAGAVWAVEGRGGRLWALTAPEPTLLGGVEPPPRRIRVDLDWERGRVAFYDGRSLDLLYAFQAPGPLGERIFPLFCTCDPRAPLRIVPAES
# B2: RNF39 in 293T cell lysate (co-IP with Flag-RINT1 constructs) (protein, UniProt Q9H2S5 1-420)
# chain: B1 chain
# How the values were obtained:
# [1] = biological target: T1, GST-tagged RNF39 fusion protein (human) (UniProt Q9H2S5); experiment: pull-down; bacterially purified GST-RNF39 or GST alone with whole-cell lysates of Flag-RINT1-overexpressing cells; only the target purified
# T1 sequence: B1 chain
# [2] = biological target: T2, Ring Finger Protein 39 (RNF39), endogenous in COAD cells (human (endogenous in COAD cells)) (UniProt Q9H2S5); experiment: co-IP; endogenous proteins; COAD cells pretreated with MG132 (10 µM, 4 h); RIPA lysates; IP with anti-RNF39 or anti-RINT1 antibody, IgG as control, immunoblotting
# T2 sequence: B1 chain
# [3] = biological target: RAD50-interacting protein 1 (RINT1), endogenous in COAD cells (human (endogenous in COAD cells)) (UniProt Q6NUQ1); experiment: as above
# [4] = biological target: Flag-tagged RINT1, construct Full (human) (UniProt Q6NUQ1); experiment: co-IP; 293T cells transfected with Flag-tagged RINT1 deletion constructs (Full, C, N) for 36 h; lysates immunoprecipitated with anti-Flag resin, immunoblotting
molecule,measurement,setting,value
Flag-RINT1 from whole-cell lysates of Flag-RINT1-overexpressing cells (from UniProt Q6NUQ1 1-792),binding,[1],binds
"RAD50-interacting protein 1 (RINT1), endogenous in COAD cells (from UniProt Q6NUQ1 1-792)",binding,[2],binds
B1,binding,[3],binds
B2,binding,[4],binds
